These are yes or no findings as the source states them, for the method shown. Some results given as binding are weak or reduced against the parent protein; the word gives no strength.
Biological target: SOD-like domain of human CCS (CCS-D2), expressed in human cells (human) (UniProt O14618)
Assay: NMR of cell lysates; 1H-15N SOFAST-HMQC on lysates (freeze-thaw in PBS, cleared) of the HEK293T cells co-expressing [U-15N]-labelled SOD1 (WT or mutant) and CCS-D2, 950 MHz

B1: SOD-like domain of human CCS (CCS-D2), expressed in human cells (domain or fragment, UniProt O14618 84-234)
chain: QNLGAAVAILGGPGTVQGVVRFLQLTPERCLIEGTIDGLEPGLHGLHVHQYGDLTNNCNSCGNHFNPDGASHGGPQDSDRHRGDLGNVRADADGRAIFRMEDEQLKVWDVIGRSLIIDEGEDDLGRGGHPLSKITGNSGERLACGIIARSA
With B1 as the binder, how does the binding read?
Its binding is “binds”.

— publication PMC5727297
